Results deposited as PubChem BioAssay AID652259 (Drosophila RNAi Screening Center, 2013)

- Aim: 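Genome-wide hunt for genes that control Wingless pathway activity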 (primary screen)
- Cell system: Drosophila clone 8 imaginal disc epithelial cells
- Knock-down reagent: long dsRNA against Drosophila genes
- Conditions: pathway stimulated by co-transfected Wingless expression plasmid
- Read-out: 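Dual luciferase reads per well after Wingless plasmid stimulation: reporter firefly light and Renilla control light; activity is firefly divided by Renilla, a ratio not deposited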
- Direction: firefly reporter light: higher = more Wg reporter light, before normalisation; Renilla control light: higher = more transfected or surviving cells
- Call rule: 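Strong candidates differ from their plate mean by at least two out of four per-plate statistical tests; weak candidates meet just one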
- Meaning of the calls: active = candidate regulator (raises or lowers reporter); inactive = not a candidate
The screen tested about 22,000 reagents; this is an unselected part of those that have a named target and a result. In the full data, 233 (1.1%) were called active. 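Light values are raw, unnormalised plate reads; the ratio scores behind the reporter calls were not deposited.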 A number with no mark means an inactive call. Names joined by + are all predicted targets of the reagent. Not stated in the record: the amount of reagent, the time to read-out, the dose of the treatment.

target gene	dsRNA	firefly reporter light, replicate 1	firefly reporter light, replicate 2	Renilla control light, replicate 1	Renilla control light, replicate 2
side-V	DRSC04188	5106	11320	1235	4352
side-V	DRSC04189	4352		1104	
side-V	DRSC22266	5.14e5	5.06e5	1.10e5	97002
CG12320	DRSC14498	14635		2261	
CG13041	DRSC09922	6256		3032	
Cnot4	DRSC02830	3866	6563	1248	2608
Cnot4	DRSC02831	4429	9917	870	1825
caz	DRSC20317	4498	9848	1108	3969
caz	DRSC22594	3.44e5	4.02e5	1.34e5	1.36e5
Vps51	DRSC06519	21920		5395	
c(2)M	DRSC01922	12029		4205	
Obp58d	DRSC04162	2554	7084	864	2786
CG18568	DRSC06768	10266		4058	
mthl7	DRSC10852	2027	7573	1335	2732
CG17486	DRSC07752	10992		4052	
sdk	DRSC18831	1958	4917	949	1076
Task6	DRSC16530	15371		3872	
CG3534	DRSC15494	10843		2967	
Pcyt1	DRSC08157	13884		4235	
CG5196	DRSC15735	16628		3592	
CG2201	DRSC03721	6377		1652	
CG30109 + CG30108	DRSC05674	15302		11538	
CG17841	DRSC17737	1818	5680	928	1842
lms	DRSC06387	3894		1894	
Frmd5	DRSC02802	2113	6409	790	3472
CG12716	DRSC19493	25312		14784	
ais	DRSC10523	3572		1750	
CG17764	DRSC18135	17829		5003	
CG30356	DRSC05119	27632		12544	
CG4613	DRSC10435	10313		3329	
Gr36c	DRSC02437	1812	6411	896	2673
Vmat + CG13330	DRSC06365	12421		3077	
CG18675	DRSC08536	2805		1781	
Obp22a	DRSC00088	26147		10957	
betaggt-I	DRSC03494	2156	8100	923	2544
CG6048	DRSC18398	15843		7750	
eIF4A	DRSC03526	2187	5324	340	999
CG32447	DRSC11732	7785		3852	
CG32447	DRSC11805	20464		5238	
CG5539	DRSC04510	2560	6562	827	2392
CG7914	DRSC20068	19680		11369	
RpL7-like	DRSC02836	3941	7739	1513	2515
CG9839	DRSC16574	5031		1553	
CG5026	DRSC10470	2874		1344	
Slob	DRSC02296	2642	7194	467	3612
Slob	DRSC03436	11556		4656	
Cul4	DRSC07243	4725		1085	
lncRNA:CR43314	DRSC01216	24632		11110	
lncRNA:CR43314	DRSC21354	2.92e5	3.88e5	1.36e5	1.43e5

Part of the list above, reformatted.
ais [DRSC10523]
- firefly reporter light, replicate 1: 3572
- Renilla control light, replicate 1: 1750

CG17764 [DRSC18135]
- firefly reporter light, replicate 1: 17829
- Renilla control light, replicate 1: 5003

CG30356 [DRSC05119]
- firefly reporter light, replicate 1: 27632
- Renilla control light, replicate 1: 12544

CG4613 [DRSC10435]
- firefly reporter light, replicate 1: 10313
- Renilla control light, replicate 1: 3329

Gr36c [DRSC02437]
- firefly reporter light, replicate 1: 1812
- firefly reporter light, replicate 2: 6411
- Renilla control light, replicate 1: 896
- Renilla control light, replicate 2: 2673

Vmat + CG13330 [DRSC06365]
- firefly reporter light, replicate 1: 12421
- Renilla control light, replicate 1: 3077

CG18675 [DRSC08536]
- firefly reporter light, replicate 1: 2805
- Renilla control light, replicate 1: 1781
